# Experimental data reported in PubChem BioAssay.
# Some of the results follow. The main result of the screen is listed elsewhere. These columns were measured beside it and carry no call. For part of these data: The list favours compounds with an active or inconclusive main result. Peptide text beside a SMILES is read from it.
# Key:
# PubChem AID 1586 = conditions: yeast two-hybrid polyglutamine protein interaction, reporter readout; measured here: averaged growth delta OD
# [1] = enhancers of SMN2 over SMN1 splicing, cell-based, SMN2/SMN1 luciferase reporters (AID 1598); conditions: SMN2 vs SMN1 luciferase splicing reporter cells, at 10 µM; SMN1 luciferase ratio: measured here: SMN1 luciferase reporter average; SMN2 luciferase ratio: measured here: SMN2 luciferase reporter average, stronger effect = higher value
# [2] = protection against mutant huntingtin cytotoxicity, PC12 cells, LDH release (AID 1610); conditions: PC12 mutant huntingtin toxicity, final LDH at 4 uM, stronger effect = lower value
Compound,signal change (36 h minus 0 h) (PubChem AID 1586),SMN1 luciferase ratio [1],SMN2 luciferase ratio [1],normalised LDH release [2]
CNCCc1ccccn1,0.185,0.92,0.92,1.3
NC(=O)c1ccccc1O,0.0868,0.89,0.97,1.11
CN(C)CCOC(=O)COc1ccc(Cl)cc1,0.174,0.92,0.89,0.605
CC(C)Oc1ccc2c(=O)cc(-c3ccccc3)oc2c1,0.166,1.28,1.15,0.905
NC(=NCCCCCCN=C(N)/N=C(\N)Nc1ccc(Cl)cc1)/N=C(\N)Nc1ccc(Cl)cc1,0.0153,0.87,0.52,0.796
NCCc1cnc[nH]1,0.0425,0.92,1.03,0.661
CN(C)CCOC(C)(c1ccccc1)c1ccccn1 (centres undefined),0.064,0.93,0.9,0.901
N[C@H](Cc1ccccc1)C(=O)O,0.111,1.11,0.96,0.527
CC/C(=C(/CC)c1ccc(O)cc1)c1ccc(O)cc1,0.163,0.97,0.93,0.346
CO[C@]12C[C@@H](COC(=O)c3cncc(Br)c3)CN(C)[C@@H]1Cc1cn(C)c3cccc2c13,0.17,0.83,0.82,0.867
NS(=O)(=O)c1cc2c(cc1Cl)NC(C1CC3C=CC1C3)NS2(=O)=O (centres undefined),0.154,0.92,0.91,1.11
O=C1OC(c2ccc(O)cc2)(c2ccc(O)cc2)c2ccccc21,0.124,0.98,0.89,0.834
C[C@@H]1OC(Oc2c(-c3ccc(O)c(O)c3)oc3cc(O)cc(O)c3c2=O)[C@H](O)[C@H](O)[C@H]1O (some centres undefined),0.147,0.89,0.93,1.07
NC(=O)c1ncn([C@@H]2O[C@H](CO)[C@@H](O)[C@H]2O)n1,0.291,1.04,0.97,0.75
NC(CO)C(=O)NNCc1ccc(O)c(O)c1O (centres undefined),0.134,1,0.91,0.476
NC(N)=NCCC[C@@H](NC(=O)[C@@H](N)Cc1ccc(O)cc1)C(=O)O,0.103,0.99,0.92,1.01
CCN(CC)CCNC(=O)COc1ccc(OC)cc1,0.414,0.9,1.05,0.835
CC(=O)[C@H]1CCC2C3C[C@H](C)C4=CC(=O)CC[C@]4(C)C3[C@@H](O)C[C@@]21C (some centres undefined),0.0735,0.67,0.63,0.461

Compound,signal change (36 h minus 0 h) (PubChem AID 1586),SMN1 luciferase ratio [1],SMN2 luciferase ratio [1],normalised LDH release [2]
C[N+](C)(C)CCO,0.0853,0.86,0.93,0.795
CN(C)CC/C=C1/c2ccccc2COc2ccccc21,0.141,0.83,0.79,0.912
CC1CC2C3CCC4=CC(=O)C=CC4(C)[C@@]3(F)C(O)CC2(C)[C@@]1(O)C(=O)CO (some centres undefined),0.196,0.91,0.96,0.381
O=C1CN(/N=C/c2ccc([N+](=O)[O-])o2)C(=O)N1,0.0367,0.9,0.96,0.879
CC(=O)NCCCCCC(=O)O,0.128,0.87,0.84,0.589
CC(=O)OCC(=O)[C@@]1(O)CCC2C3CCC4=CC(=O)CC[C@]4(C)C3[C@@H](O)C[C@@]21C (some centres undefined),0.0543,0.86,0.88,0.409
Nc1ccc(S(N)(=O)=O)cc1,0.192,0.93,0.84,0.826
O=C1c2c(O)cccc2Cc2cccc(O)c21,0.124,0.93,0.93,0.847
CN1C(C(=O)Nc2ccccn2)=C(O)c2sccc2S1(=O)=O,0.185,0.91,0.93,0.845
C[N+]1(C)CCCC(OC(=O)C(O)(c2ccccc2)c2ccccc2)C1 (centres undefined),0.0791,0.89,0.8,1.06
CC(=O)N[C@@H](CC(=O)O)C(=O)N[C@@H](CCC(=O)O)C(=O)O (Ac-Asp-Glu-OH),0.0039,0.94,0.88,1.07
CN1CCOC(c2ccccc2)c2ccccc2C1 (centres undefined),0.0554,0.85,0.86,0.77
NC1(C(=O)O)CCCC1,0.0781,0.8,0.88,0.979
NC(N)=O,0.136,0.9,0.85,1.25
Cc1ccc(S(=O)(=O)NC(=O)NN2CCCCCC2)cc1,0.216,0.88,0.92,1.49
CN1CCCN=C1COC(=O)C(O)(c1ccccc1)C1CCCCC1 (centres undefined),0.0689,0.81,0.91,0.623
C1CCN2C[C@@H]3CC(CN4CCCC[C@@H]34)[C@H]2C1,0.144,0.86,0.87,0.828
O=C(O)c1ccccc1OP(=O)(O)O,0.153,0.9,0.93,0.866

# Some of the entries so far, bar-delimited.
Compound | signal change (36 h minus 0 h) (PubChem AID 1586) | SMN1 luciferase ratio [1] | SMN2 luciferase ratio [1] | normalised LDH release [2]
C[N+](C)(C)CCO | 0.0853 | 0.86 | 0.93 | 0.795
CN(C)CC/C=C1/c2ccccc2COc2ccccc21 | 0.141 | 0.83 | 0.79 | 0.912
CC1CC2C3CCC4=CC(=O)C=CC4(C)[C@@]3(F)C(O)CC2(C)[C@@]1(O)C(=O)CO (some centres undefined) | 0.196 | 0.91 | 0.96 | 0.381
O=C1CN(/N=C/c2ccc([N+](=O)[O-])o2)C(=O)N1 | 0.0367 | 0.9 | 0.96 | 0.879
CC(=O)NCCCCCC(=O)O | 0.128 | 0.87 | 0.84 | 0.589
CC(=O)OCC(=O)[C@@]1(O)CCC2C3CCC4=CC(=O)CC[C@]4(C)C3[C@@H](O)C[C@@]21C (some centres undefined) | 0.0543 | 0.86 | 0.88 | 0.409
Nc1ccc(S(N)(=O)=O)cc1 | 0.192 | 0.93 | 0.84 | 0.826
O=C1c2c(O)cccc2Cc2cccc(O)c21 | 0.124 | 0.93 | 0.93 | 0.847
CN1C(C(=O)Nc2ccccn2)=C(O)c2sccc2S1(=O)=O | 0.185 | 0.91 | 0.93 | 0.845
